Reference: patent US20240041911A1, “USE OF CLADRIBINE FOR TREATING IMMUNE BRAIN DISEASE” (CHORD THERAPEUTICS SA, priority 2020, published 2024)
For at least one compound, name, drawing or mass did not settle the structure.

Assay: Treatment of a person suffering from autoimmune-mediated limbic encephalitis (single-patient case, anti-NMDAR encephalitis)
Conditions: during entire stay in the psychiatric ward, before cladribine

Cc1cc2c(s1)Nc1ccccc1N=C2N1CCN(C)CC1 [olanzapine]
psychiatric condition under standard antipsychotic treatment: without any improvement
